The list shows a part of the results. Hit calls seldom repeat between salt and free forms of one compound.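 Kinases, fused to nanoluciferase, were expressed in K562 cells; luminescence was measured every 4 h from 2 to 18 h as percent of control (DMSO = 100%, positive control = 0%). A time point is decreased if signal falls significantly (2 sigma). Hits were called by the authors by a rule that is not shown; the count of time points alone does not decide it.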
Experiments:
Experiment in all cases: number of time points (of 5) at which kinase-Nluc abundance scored as decreased, DMSO-normalised (count); higher = more persistent destabilization
Pictilisib = compound: CS(=O)(=O)N1CCN(Cc2cc3nc(-c4cccc5[nH]ncc45)nc(N4CCOCC4)c3s2)CC1 [Pictilisib]; conditions: 10 µM; K562; 2-18 h
[1] = compound: C[C@@H](N)[C@H]1CC[C@H](C(=O)Nc2ccncc2)CC1; conditions: 10 µM; K562; 2-18 h
[2] = compound: C[C@H](CCC(=O)NCCS(=O)(=O)O)[C@H]1CC[C@H]2[C@@H]3[C@@H](O)C[C@@H]4C[C@H](O)CC[C@]4(C)[C@H]3CC[C@]12C [Tauroursodeoxycholate (dihydrate)]; conditions: 10 µM; K562; 2-18 h
[3] = compound: C[C@H](CCC(=O)NCCS(=O)(=O)O)[C@H]1CC[C@H]2[C@@H]3[C@@H](O)C[C@@H]4C[C@H](O)CC[C@]4(C)[C@H]3CC[C@]12C [Tauroursodeoxycholate (sodium)]; conditions: 10 µM; K562; 2-18 h
[4] = compound: C[C@H](Nc1cc(-c2cnn(C)c2)cc(Nc2cnccn2)n1)c1ccc(F)cc1 [Ilginatinib hydrochloride]; conditions: 2.5 µM; K562; 2-18 h
Ilginatinib = compound: C[C@H](Nc1cc(-c2cnn(C)c2)cc(Nc2cnccn2)n1)c1ccc(F)cc1 [Ilginatinib]; conditions: 2.5 µM; K562; 2-18 h
[5] = compound: C[S+]([O-])c1ccc(-c2nc(-c3ccc(F)cc3)c(-c3ccncc3)[nH]2)cc1; conditions: 10 µM; K562; 2-18 h
Toceranib (phosphate) = compound: Cc1[nH]c(/C=C2\C(=O)Nc3ccc(F)cc32)c(C)c1C(=O)NCCN1CCCC1 [Toceranib (phosphate)]; conditions: 2 µM; K562; 2-18 h
Toceranib = compound: Cc1[nH]c(/C=C2\C(=O)Nc3ccc(F)cc32)c(C)c1C(=O)NCCN1CCCC1 [Toceranib]; conditions: 2 µM; K562; 2-18 h
[6] = compound: Cc1cc(Nc2ncc(Cl)c(Nc3ccccc3S(=O)(=O)C(C)C)n2)c(OC(C)C)cc1C1CCNCC1 [Ceritinib dihydrochloride]; conditions: 2.5 µM; K562; 2-18 h
Ceritinib = compound: Cc1cc(Nc2ncc(Cl)c(Nc3ccccc3S(=O)(=O)C(C)C)n2)c(OC(C)C)cc1C1CCNCC1 [Ceritinib]; conditions: 2.5 µM; K562; 2-18 h
Masitinib (mesylate) = compound: Cc1ccc(NC(=O)c2ccc(CN3CCN(C)CC3)cc2)cc1Nc1nc(-c2cccnc2)cs1 [Masitinib (mesylate)]; conditions: 2.5 µM; K562; 2-18 h
Masitinib = compound: Cc1ccc(NC(=O)c2ccc(CN3CCN(C)CC3)cc2)cc1Nc1nc(-c2cccnc2)cs1 [Masitinib]; conditions: 2.5 µM; K562; 2-18 h
[7] = compound: Cc1cccc(-c2[nH]c(CNc3ccccc3F)nc2-c2ccc3ncnn3c2)n1 [Vactosertib (Hydrochloride)]; conditions: 2.5 µM; K562; 2-18 h
Vactosertib = compound: Cc1cccc(-c2[nH]c(CNc3ccccc3F)nc2-c2ccc3ncnn3c2)n1 [Vactosertib]; conditions: 2.5 µM; K562; 2-18 h
Apilimod (mesylate) = compound: Cc1cccc(/C=N/Nc2cc(N3CCOCC3)nc(OCCc3ccccn3)n2)c1 [Apilimod (mesylate)]; conditions: 10 µM; K562; 2-18 h
Apilimod = compound: Cc1cccc(/C=N/Nc2cc(N3CCOCC3)nc(OCCc3ccccn3)n2)c1 [Apilimod]; conditions: 2.5 µM; K562; 2-18 h
[8] = compound: Cc1nc2ccc(-n3c(-c4nonc4N)nc4cnccc43)cc2[nH]1; conditions: 10 µM; K562; 2-18 h
AT7867 (dihydrochloride) = compound: Clc1ccc(C2(c3ccc(-c4cn[nH]c4)cc3)CCNCC2)cc1 [AT7867 (dihydrochloride)]; conditions: 2.5 µM; K562; 2-18 h
[9] = compound: C[C@@H](N)c1ccc(C(=O)Nc2ccnc3[nH]ccc23)cc1; conditions: 10 µM; K562; 2-18 h

Amino acid sequences for entries named in this document (tags omitted). A change or cut given only in a name is not applied to a line headed by its entry.
UniProt Q13546: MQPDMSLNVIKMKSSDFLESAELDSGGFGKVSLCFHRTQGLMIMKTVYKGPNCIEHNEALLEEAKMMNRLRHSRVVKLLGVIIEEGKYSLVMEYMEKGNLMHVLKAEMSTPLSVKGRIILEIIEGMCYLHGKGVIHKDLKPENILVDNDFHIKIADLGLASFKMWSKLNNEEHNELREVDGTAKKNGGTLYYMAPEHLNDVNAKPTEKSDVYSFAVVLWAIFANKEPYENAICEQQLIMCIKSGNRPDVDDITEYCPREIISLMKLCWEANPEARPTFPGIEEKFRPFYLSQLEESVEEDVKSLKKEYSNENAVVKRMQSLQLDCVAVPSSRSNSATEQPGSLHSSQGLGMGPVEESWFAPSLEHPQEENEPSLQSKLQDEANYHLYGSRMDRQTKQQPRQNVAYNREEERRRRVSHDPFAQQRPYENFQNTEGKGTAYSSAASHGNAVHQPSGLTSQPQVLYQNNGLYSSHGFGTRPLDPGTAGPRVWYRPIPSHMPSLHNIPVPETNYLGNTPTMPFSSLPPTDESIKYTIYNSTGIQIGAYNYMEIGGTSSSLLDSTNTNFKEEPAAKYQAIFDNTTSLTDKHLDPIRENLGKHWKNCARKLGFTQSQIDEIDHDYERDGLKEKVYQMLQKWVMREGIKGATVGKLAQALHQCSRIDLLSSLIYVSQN
UniProt P51813: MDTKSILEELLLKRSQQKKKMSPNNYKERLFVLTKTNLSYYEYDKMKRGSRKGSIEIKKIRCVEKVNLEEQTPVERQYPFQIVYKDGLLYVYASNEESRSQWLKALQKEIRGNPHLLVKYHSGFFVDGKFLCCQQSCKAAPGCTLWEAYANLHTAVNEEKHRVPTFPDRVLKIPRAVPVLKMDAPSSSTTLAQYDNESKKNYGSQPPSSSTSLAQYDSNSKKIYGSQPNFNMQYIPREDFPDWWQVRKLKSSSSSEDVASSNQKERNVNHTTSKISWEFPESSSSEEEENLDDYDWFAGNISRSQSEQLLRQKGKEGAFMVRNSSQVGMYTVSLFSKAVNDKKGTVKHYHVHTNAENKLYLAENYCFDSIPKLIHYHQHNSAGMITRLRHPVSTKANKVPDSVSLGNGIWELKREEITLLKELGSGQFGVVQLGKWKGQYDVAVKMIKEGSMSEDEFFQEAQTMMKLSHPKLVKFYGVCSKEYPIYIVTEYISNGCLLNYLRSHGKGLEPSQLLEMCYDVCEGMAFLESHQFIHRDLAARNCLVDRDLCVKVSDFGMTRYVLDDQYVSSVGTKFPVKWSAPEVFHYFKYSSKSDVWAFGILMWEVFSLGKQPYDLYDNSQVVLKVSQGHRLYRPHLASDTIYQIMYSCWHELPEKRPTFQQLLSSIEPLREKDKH
UniProt Q8IWU2: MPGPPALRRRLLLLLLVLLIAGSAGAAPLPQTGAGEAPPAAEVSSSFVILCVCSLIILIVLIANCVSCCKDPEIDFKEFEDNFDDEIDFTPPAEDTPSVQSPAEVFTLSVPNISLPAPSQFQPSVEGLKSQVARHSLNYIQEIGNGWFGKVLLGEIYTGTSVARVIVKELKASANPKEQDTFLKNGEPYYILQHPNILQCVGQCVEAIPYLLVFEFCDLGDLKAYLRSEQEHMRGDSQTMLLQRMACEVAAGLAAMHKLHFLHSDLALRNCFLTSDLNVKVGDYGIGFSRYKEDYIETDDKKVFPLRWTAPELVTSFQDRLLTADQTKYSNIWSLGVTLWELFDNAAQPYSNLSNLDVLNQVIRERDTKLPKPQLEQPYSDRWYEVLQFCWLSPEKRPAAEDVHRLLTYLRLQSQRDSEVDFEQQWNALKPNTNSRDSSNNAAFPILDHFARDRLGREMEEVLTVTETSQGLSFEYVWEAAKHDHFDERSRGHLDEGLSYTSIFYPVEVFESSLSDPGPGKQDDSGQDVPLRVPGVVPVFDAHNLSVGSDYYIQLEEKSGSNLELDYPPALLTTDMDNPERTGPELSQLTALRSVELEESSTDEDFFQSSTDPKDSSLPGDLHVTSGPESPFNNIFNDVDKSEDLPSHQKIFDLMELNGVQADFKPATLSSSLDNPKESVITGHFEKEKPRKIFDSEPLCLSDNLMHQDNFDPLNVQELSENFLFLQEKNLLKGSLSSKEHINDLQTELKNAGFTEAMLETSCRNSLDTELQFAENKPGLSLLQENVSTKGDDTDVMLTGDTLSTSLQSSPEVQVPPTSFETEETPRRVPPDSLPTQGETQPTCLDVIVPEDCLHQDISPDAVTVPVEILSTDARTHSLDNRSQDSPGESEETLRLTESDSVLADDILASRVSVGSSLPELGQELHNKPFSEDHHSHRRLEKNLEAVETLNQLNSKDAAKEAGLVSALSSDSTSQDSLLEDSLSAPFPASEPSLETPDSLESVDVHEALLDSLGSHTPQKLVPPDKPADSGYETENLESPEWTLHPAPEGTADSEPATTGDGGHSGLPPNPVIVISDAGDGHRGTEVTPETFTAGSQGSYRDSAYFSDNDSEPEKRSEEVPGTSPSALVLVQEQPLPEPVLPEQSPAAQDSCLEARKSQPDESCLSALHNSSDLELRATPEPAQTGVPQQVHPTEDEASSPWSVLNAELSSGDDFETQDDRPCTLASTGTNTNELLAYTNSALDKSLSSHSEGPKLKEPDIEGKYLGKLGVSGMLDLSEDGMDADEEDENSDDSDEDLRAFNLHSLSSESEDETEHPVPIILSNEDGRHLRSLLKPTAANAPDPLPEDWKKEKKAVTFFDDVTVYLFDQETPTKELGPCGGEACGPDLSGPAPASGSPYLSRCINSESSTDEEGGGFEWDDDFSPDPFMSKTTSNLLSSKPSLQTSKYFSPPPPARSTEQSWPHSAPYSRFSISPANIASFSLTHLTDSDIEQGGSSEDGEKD
UniProt P53671: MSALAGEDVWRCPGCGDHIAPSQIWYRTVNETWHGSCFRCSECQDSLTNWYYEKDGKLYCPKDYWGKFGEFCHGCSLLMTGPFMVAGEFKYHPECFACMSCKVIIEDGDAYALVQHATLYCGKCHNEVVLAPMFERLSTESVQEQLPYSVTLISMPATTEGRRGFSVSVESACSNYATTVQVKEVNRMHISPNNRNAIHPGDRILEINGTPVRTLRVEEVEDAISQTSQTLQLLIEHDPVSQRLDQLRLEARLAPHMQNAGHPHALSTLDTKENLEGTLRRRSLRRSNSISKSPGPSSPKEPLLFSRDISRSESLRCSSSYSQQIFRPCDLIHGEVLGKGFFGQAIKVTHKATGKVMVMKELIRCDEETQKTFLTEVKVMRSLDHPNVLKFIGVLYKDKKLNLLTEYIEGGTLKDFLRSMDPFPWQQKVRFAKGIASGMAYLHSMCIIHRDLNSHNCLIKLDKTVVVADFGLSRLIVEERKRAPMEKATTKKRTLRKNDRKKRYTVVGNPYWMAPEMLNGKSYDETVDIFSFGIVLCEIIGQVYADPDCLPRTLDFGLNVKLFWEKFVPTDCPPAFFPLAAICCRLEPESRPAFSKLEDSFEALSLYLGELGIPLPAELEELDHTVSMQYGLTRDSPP
UniProt P21860, whole entry: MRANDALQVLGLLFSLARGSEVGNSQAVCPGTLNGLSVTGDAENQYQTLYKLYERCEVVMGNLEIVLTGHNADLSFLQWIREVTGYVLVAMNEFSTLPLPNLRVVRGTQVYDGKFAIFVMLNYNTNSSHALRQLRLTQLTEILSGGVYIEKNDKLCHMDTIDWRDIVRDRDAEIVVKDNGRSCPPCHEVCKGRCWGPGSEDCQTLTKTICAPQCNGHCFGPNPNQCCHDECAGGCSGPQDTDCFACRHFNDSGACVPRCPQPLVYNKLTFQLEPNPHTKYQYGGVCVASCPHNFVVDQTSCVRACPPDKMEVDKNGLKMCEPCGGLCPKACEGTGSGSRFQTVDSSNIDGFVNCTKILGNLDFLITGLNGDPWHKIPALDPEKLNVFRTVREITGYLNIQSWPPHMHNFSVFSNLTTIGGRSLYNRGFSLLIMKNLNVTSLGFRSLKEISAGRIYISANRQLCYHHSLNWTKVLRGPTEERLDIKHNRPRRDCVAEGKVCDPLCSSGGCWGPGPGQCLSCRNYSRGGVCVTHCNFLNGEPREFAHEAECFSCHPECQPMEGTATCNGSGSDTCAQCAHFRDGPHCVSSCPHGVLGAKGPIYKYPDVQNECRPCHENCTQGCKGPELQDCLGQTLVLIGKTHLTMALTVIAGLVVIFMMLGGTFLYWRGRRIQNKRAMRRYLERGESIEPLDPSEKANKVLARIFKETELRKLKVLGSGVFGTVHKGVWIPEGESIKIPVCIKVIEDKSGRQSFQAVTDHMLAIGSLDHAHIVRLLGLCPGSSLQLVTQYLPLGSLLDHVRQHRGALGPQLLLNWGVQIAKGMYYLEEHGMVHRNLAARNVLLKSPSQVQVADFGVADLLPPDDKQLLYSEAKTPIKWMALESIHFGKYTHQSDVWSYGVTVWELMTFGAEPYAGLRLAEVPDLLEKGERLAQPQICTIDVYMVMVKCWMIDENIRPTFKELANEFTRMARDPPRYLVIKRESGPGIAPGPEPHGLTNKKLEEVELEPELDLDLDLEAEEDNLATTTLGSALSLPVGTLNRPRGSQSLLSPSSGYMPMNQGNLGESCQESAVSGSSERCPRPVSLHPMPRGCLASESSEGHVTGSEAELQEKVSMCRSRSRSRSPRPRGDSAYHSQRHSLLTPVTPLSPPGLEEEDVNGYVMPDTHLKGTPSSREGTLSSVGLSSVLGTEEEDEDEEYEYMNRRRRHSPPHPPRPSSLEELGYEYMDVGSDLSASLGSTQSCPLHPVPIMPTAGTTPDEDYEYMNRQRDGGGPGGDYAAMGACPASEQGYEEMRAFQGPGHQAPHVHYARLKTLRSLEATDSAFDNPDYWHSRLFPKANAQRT
UniProt Q15303, whole entry R711C: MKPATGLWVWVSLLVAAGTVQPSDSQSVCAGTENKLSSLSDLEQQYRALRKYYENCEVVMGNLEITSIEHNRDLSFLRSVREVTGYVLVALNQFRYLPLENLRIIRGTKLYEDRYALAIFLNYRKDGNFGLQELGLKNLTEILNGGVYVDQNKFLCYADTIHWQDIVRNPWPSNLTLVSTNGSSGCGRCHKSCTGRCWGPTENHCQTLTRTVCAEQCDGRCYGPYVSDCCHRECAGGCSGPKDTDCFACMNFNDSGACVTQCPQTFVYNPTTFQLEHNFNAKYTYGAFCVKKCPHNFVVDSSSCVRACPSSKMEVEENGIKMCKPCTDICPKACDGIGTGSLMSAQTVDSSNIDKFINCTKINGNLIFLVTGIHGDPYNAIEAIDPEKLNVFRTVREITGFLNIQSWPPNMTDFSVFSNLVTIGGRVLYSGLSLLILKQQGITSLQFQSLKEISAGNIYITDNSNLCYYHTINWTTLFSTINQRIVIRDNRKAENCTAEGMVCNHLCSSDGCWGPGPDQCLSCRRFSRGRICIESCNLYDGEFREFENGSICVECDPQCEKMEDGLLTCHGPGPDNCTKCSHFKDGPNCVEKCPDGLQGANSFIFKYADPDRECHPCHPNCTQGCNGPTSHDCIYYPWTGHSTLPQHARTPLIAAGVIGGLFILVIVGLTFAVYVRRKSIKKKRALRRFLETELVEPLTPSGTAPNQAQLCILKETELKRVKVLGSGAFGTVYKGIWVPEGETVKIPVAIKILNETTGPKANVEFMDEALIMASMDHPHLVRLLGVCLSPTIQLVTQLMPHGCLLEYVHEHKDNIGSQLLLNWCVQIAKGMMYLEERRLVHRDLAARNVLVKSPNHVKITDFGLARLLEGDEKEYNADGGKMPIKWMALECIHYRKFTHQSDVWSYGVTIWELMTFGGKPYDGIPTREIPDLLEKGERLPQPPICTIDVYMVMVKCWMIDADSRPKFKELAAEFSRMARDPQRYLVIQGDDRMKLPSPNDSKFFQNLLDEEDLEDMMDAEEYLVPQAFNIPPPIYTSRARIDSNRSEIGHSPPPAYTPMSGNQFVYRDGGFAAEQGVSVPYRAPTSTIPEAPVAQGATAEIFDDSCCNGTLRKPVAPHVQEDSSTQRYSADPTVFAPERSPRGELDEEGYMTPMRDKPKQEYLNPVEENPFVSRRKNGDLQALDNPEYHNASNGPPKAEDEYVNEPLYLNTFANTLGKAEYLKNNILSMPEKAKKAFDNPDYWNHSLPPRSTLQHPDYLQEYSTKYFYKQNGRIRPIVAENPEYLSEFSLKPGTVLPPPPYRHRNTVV

Measured: number of time points

RIPK1 (UniProt Q13546)
3: [4]
0: Pictilisib | [1] | [2] | [3] | [5] | Toceranib (phosphate) | Toceranib | [6] | Ceritinib | [7] | Vactosertib | Apilimod (mesylate) | Apilimod | [8] | AT7867 (dihydrochloride)
1: Ilginatinib | Masitinib (mesylate) | Masitinib

BMX (UniProt P51813)
1: Masitinib (mesylate) | Masitinib
0: Pictilisib | [1] | [2] | [3] | [4] | [5] | Toceranib (phosphate) | Toceranib | [6] | Ceritinib | [7] | Vactosertib | Apilimod (mesylate) | Apilimod | [8] | AT7867 (dihydrochloride)
3: Ilginatinib

LMTK2 (UniProt Q8IWU2)
1: Ilginatinib
0: Pictilisib | [1] | [2] | [3] | [5] | Toceranib (phosphate) | Toceranib | [6] | Ceritinib | Masitinib (mesylate) | Masitinib | [7] | Vactosertib | Apilimod (mesylate) | Apilimod | [8] | AT7867 (dihydrochloride)
2: [4]

BRAF_V600E
0: Pictilisib | [1] | [9] | [2] | [3] | [5] | Toceranib (phosphate) | Toceranib | [6] | Ceritinib | [7] | Vactosertib | Apilimod (mesylate) | Apilimod | [8] | AT7867 (dihydrochloride)
2: [4] | Ilginatinib | Masitinib (mesylate) | Masitinib

LIMK2 (UniProt P53671)
1: Masitinib (mesylate) | Masitinib
0: Pictilisib | [9] | [2] | [3] | [4] | Ilginatinib | [5] | Toceranib (phosphate) | Toceranib | [6] | Ceritinib | [7] | Vactosertib | Apilimod (mesylate) | Apilimod | [8] | AT7867 (dihydrochloride)

EGFR_L858R (UniProt P00533)
1: [4] | Ilginatinib | Masitinib (mesylate) | Masitinib
0: Pictilisib | [9] | [2] | [3] | Toceranib (phosphate) | Toceranib | [6] | Ceritinib | [7] | Vactosertib | Apilimod (mesylate) | Apilimod | [8] | AT7867 (dihydrochloride)

SRC (UniProt P12931)
0: Pictilisib | [1] | [9] | [2] | [3] | [4] | Ilginatinib | [5] | Toceranib (phosphate) | Toceranib | [6] | Ceritinib | Masitinib (mesylate) | Masitinib | [7] | Vactosertib | Apilimod (mesylate) | Apilimod | [8] | AT7867 (dihydrochloride)

FGFR1 (UniProt P11362)
0: Pictilisib | [1] | [9] | [2] | [3] | [4] | [5] | Toceranib (phosphate) | Toceranib | [6] | Ceritinib | Masitinib (mesylate) | Masitinib | [7] | Vactosertib | Apilimod (mesylate) | Apilimod | [8] | AT7867 (dihydrochloride)
1: Ilginatinib

ERBB3 (UniProt P21860)
2: Masitinib (mesylate)
1: Masitinib | Apilimod (mesylate)
0: Pictilisib | [1] | [9] | [2] | [3] | [5] | Toceranib (phosphate) | Toceranib | [6] | Ceritinib | [7] | Vactosertib | Apilimod | [8] | AT7867 (dihydrochloride)
3: Ilginatinib
5: [4]

EGFR_T790M (UniProt P00533)
2: Ceritinib
0: Pictilisib | [9] | [2] | [3] | [4] | Ilginatinib | Toceranib (phosphate) | Toceranib | [6] | Masitinib (mesylate) | Masitinib | [7] | Apilimod (mesylate) | Apilimod | [8] | AT7867 (dihydrochloride)

PRKCA (UniProt P17252)
1: Vactosertib
0: Pictilisib | [9] | [2] | [3] | [4] | Ilginatinib | [5] | Toceranib (phosphate) | Toceranib | [6] | Ceritinib | Masitinib (mesylate) | Masitinib | [7] | Apilimod (mesylate) | Apilimod | [8] | AT7867 (dihydrochloride)

PLK1 (UniProt P53350)
0: Pictilisib | [1] | [9] | [2] | [3] | [4] | Ilginatinib | [5] | Toceranib (phosphate) | Toceranib | [6] | Ceritinib | Masitinib (mesylate) | [7] | Vactosertib | Apilimod (mesylate) | Apilimod | [8] | AT7867 (dihydrochloride)
1: Masitinib

EGFR_L718V (UniProt P00533)
0: Pictilisib | [9] | [2] | [3] | [4] | Toceranib (phosphate) | Toceranib | [6] | Ceritinib | Masitinib (mesylate) | Masitinib | [7] | Vactosertib | Apilimod (mesylate) | Apilimod | [8] | AT7867 (dihydrochloride)
1: Ilginatinib

EGFR_G719S (UniProt P00533)
2: [4] | Ilginatinib
0: Pictilisib | [9] | [2] | [3] | Toceranib (phosphate) | Toceranib | [6] | Ceritinib | Masitinib (mesylate) | [7] | Vactosertib | Apilimod (mesylate) | Apilimod | [8] | AT7867 (dihydrochloride)
1: Masitinib

5 successive records out of the list so far, quoted:
ERBB3 (UniProt P21860)
2: Masitinib (mesylate)
1: Masitinib | Apilimod (mesylate)
0: Pictilisib | [1] | [9] | [2] | [3] | [5] | Toceranib (phosphate) | Toceranib | [6] | Ceritinib | [7] | Vactosertib | Apilimod | [8] | AT7867 (dihydrochloride)
3: Ilginatinib
5: [4]

EGFR_T790M (UniProt P00533)
2: Ceritinib
0: Pictilisib | [9] | [2] | [3] | [4] | Ilginatinib | Toceranib (phosphate) | Toceranib | [6] | Masitinib (mesylate) | Masitinib | [7] | Apilimod (mesylate) | Apilimod | [8] | AT7867 (dihydrochloride)

PRKCA (UniProt P17252)
1: Vactosertib
0: Pictilisib | [9] | [2] | [3] | [4] | Ilginatinib | [5] | Toceranib (phosphate) | Toceranib | [6] | Ceritinib | Masitinib (mesylate) | Masitinib | [7] | Apilimod (mesylate) | Apilimod | [8] | AT7867 (dihydrochloride)

PLK1 (UniProt P53350)
0: Pictilisib | [1] | [9] | [2] | [3] | [4] | Ilginatinib | [5] | Toceranib (phosphate) | Toceranib | [6] | Ceritinib | Masitinib (mesylate) | [7] | Vactosertib | Apilimod (mesylate) | Apilimod | [8] | AT7867 (dihydrochloride)
1: Masitinib

EGFR_L718V (UniProt P00533)
0: Pictilisib | [9] | [2] | [3] | [4] | Toceranib (phosphate) | Toceranib | [6] | Ceritinib | Masitinib (mesylate) | Masitinib | [7] | Vactosertib | Apilimod (mesylate) | Apilimod | [8] | AT7867 (dihydrochloride)
1: Ilginatinib

Later entries

CDK2 (UniProt P24941)
0: Pictilisib | [1] | [2] | [3] | [4] | Ilginatinib | [5] | Toceranib (phosphate) | Toceranib | [6] | Ceritinib | Masitinib (mesylate) | Masitinib | [7] | Vactosertib | Apilimod (mesylate) | Apilimod | [8] | AT7867 (dihydrochloride)

RET (UniProt P07949)
0: Pictilisib | [9] | [2] | [3] | [5] | Toceranib (phosphate) | Toceranib | [6] | Ceritinib | Masitinib (mesylate) | [7] | Vactosertib | Apilimod (mesylate) | Apilimod | [8] | AT7867 (dihydrochloride)
1: [4] | Masitinib
2: Ilginatinib

ERBB4_R711C (clone: ERBB4_mut) (UniProt Q15303)
3: [4]
0: Pictilisib | [1] | [9] | [2] | [3] | [5] | Toceranib (phosphate) | Toceranib | [6] | Ceritinib | [7] | Vactosertib | Apilimod (mesylate) | Apilimod | [8] | AT7867 (dihydrochloride)
2: Ilginatinib | Masitinib (mesylate) | Masitinib

Source: the supplement of paper PMC12823440, “Inhibitors supercharge kinase turnover through native proteolytic circuits” (Nature, 2025)
